# Values quoted from earlier work as cited in US20090082353A1, “TREATMENT OF EPILEPSY WITH NON-IMIDAZOLE ALKYLAMINES HISTAMINE H3-RECEPTOR LIGANDS” (priority 2005, published 2009).
# At least one structure is not confirmed: it was looked up by name or label, or the drawing left a doubt.
# What was measured:
# [1] = test system: GAERS (Genetic Absence Epilepsy, Rat from Strasbourg); conditions: in vivo; cited from earlier work
# [2] = test system: intrahippocampal kainate-induced temporal lobe seizures; conditions: mice; cited from earlier work
smiles,measurement,setting,value
CCCC(CCC)C(=O)O [valproate],pharmacological reactivity of the GAERS model,[1],protective
same,effect of antiepileptic drugs on kainate-induced seizures,[2],without significant effects
